Results are given in words; binding and its absence hold for the method and conditions named. Binding seen in cells or lysates may run through a third protein. Some entries that bind do so weakly or less than the wild type. Sequences can lack the tags named with a protein.
Key:
Assay in all cases: co-IP; HEK293 transfected with EGFP-PPM1D constructs; extracts with bensonase on GFP trap; immunoblot of endogenous proteins
[1] = target: T1, EGFP-PPM1D-CT (unstructured C-terminal region of PPM1D) (human) (UniProt O15297)
T1 sequence: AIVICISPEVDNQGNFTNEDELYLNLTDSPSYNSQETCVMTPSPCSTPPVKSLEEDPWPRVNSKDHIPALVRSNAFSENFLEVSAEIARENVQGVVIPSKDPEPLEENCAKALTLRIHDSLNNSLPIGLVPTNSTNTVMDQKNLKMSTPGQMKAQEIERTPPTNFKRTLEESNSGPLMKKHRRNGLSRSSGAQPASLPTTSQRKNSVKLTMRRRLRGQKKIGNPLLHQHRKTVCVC

[2] = target: T2, EGFP-PPM1D-A380 (catalytic domain of PPM1D) (human) (UniProt O15297)
T2 sequence: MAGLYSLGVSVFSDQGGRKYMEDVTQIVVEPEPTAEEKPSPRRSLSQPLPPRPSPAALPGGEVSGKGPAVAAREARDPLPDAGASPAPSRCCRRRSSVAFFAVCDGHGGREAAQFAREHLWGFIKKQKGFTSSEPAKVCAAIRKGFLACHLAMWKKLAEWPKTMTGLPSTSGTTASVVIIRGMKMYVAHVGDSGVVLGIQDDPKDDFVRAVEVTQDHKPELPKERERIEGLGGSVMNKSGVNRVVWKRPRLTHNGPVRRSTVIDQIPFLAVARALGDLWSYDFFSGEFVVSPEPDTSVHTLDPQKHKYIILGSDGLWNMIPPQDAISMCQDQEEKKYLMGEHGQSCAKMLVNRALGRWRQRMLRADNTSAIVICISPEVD

[3] = target: T3, EGFP-PPM1D (full length, wild type) (human) (UniProt O15297)
T3 sequence: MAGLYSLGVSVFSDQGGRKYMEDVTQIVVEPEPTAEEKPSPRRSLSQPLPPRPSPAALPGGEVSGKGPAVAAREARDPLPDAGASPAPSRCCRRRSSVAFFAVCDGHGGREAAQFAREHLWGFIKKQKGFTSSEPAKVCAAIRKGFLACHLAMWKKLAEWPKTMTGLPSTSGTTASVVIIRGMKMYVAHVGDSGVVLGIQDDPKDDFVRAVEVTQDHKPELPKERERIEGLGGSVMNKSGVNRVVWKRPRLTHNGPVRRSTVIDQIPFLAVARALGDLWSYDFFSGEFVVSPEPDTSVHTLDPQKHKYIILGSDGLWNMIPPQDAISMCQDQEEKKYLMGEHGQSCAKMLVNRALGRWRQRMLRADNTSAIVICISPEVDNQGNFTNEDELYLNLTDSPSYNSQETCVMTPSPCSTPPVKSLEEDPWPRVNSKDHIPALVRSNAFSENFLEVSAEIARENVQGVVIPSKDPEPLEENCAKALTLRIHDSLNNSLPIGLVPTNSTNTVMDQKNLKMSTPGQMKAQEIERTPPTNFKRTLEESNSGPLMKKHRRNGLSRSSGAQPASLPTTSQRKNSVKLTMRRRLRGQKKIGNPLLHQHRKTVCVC

binding [1]: no binding | binding [2]: binds | binding [3]: binds
Substance: telomeric repeat-binding factor 2 (TRF2), endogenous in HEK293 (from UniProt Q15554-3 1-542)

— publication PMC9943673
